Literature values in publication PMC3401593 (Journal of Pharmaceutical Sciences, 2009).

Details: cited from earlier work

CN1CC[C@]23c4c5ccc(O)c4O[C@H]2[C@@H](O)C=C[C@H]3[C@H]1C5 [morphine]
Brain penetration enhancement in mdr1a (−/−) mice: 1.7 fold
